Results on nine molecules are retold here after publication doi:10.64898/2025.12.17.694855.

These are yes or no findings as the source states them, for the method shown. Binding seen in cells or lysates may run through a third protein. Here binding means that the protein was enriched with, or labelled near, the bait; the list need not be complete.

T1: Dcp1-TAP (S. cerevisiae) (UniProt Q12517)
T1 sequence: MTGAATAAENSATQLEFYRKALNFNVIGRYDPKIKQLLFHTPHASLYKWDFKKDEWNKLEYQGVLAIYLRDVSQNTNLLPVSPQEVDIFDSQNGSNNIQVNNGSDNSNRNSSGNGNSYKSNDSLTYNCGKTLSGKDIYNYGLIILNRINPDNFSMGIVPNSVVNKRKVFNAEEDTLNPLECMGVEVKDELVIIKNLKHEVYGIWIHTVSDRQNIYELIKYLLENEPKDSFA

T2: Lsm1-TAP (S. cerevisiae) (UniProt P47017)
T2 sequence: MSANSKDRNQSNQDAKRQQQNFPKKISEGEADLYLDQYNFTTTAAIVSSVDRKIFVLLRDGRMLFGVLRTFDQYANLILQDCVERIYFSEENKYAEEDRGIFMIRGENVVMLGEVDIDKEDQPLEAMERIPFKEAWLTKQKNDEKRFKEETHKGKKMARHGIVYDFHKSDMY

T3: Lsm1-TAP (S. cerevisiae), P47017
T3 chain: T2 sequence

B1: Lsm4 (protein, UniProt P40070 1-187)
chain: MLPLYLLTNAKGQQMQIELKNGEIIQGILTNVDNWMNLTLSNVTEYSEESAINSEDNAESSKAVKLNEIYIRGTFIKFIKLQDNIIDKVKQQINSNNNSNSNGPGHKRYYNNRDSNNNRGNYNRRNNNNGNSNRRPYSQNRQYNNSNSSNINNSINSINSNNQNMNNGLGGSVQHHFNSSSPQKVEF
B2: Pby1 (protein, UniProt P38254 1-753)
chain: MRVLITNDDGPLSDQFSPYIRPFIQHIKRNYPEWKITVCVPHVQKSWVGKAHLAGKNLTAQFIYSKVDAEDNTFWGPFIQPQIRSENSKLPYVLNAEIPKDTIEWILIDGTPASCANIGLHLLSNEPFDLVLSGPNVGRNTSAAYITSSGTVGGAMESVITGNTKAIAISWAYFNGLKNVSPLLMEKASKRSLDVIKHLVKNWDPKTDLYSINIPLVESLSDDTKVYYAPIWENRWIPIFNGPHINLENSFAEIEDGNESSSISFNWAPKFGAHKDSIHYMDEYKDRTVLTDAEVIESEMISVTPMKATFKGVNHLLGELKLTEEENNLSKTNNLIVVSIDPMEYIYKPLTHALKKYLPQVEIVSNLPEFDNGGCEKEMKVFHYGDYEQLDMDKLMELPNNYFTNSYIYRKALIRKHFLSHTIQTYTAKNPESILKKAYLESFTIDLDYAEFLDDALDENWELRQELENESQDKWWIVKPSMSDKGQGIRVFKTIEDLQAIFDSFDDEDSEAEESGNDDDADDVNGEFMDNNKVNISQLRHFIIQEYLTNPLLLASMDNRKFHIRCYVVCRGDLQVFVYDRMLALFAAKPFVPLDPYAYSVTDLKDLECHLTNTCLQSKKKDKDSSVLEFDSIEEIPNERKSNIKEQIHSITNDVFLAAVNVNRLNFQPLPNAFETYGVDFLIDSNYEVKLLEINAFPDFKQTGKDLKNLIDELFDDTVKYCVTPIFNENRNKTDDETDPNFVKVIDYTSNGW
B3: Lsm5 (protein, UniProt P40089 1-93)
chain: MSLPEILPLEVIDKTINQKVLIVLQSNREFEGTLVGFDDFVNVILEDAVEWLIDPEDESRNEKVMQHHGRMLLSGNNIAILVPGGKKTPTEAL
B4: Upf1 (protein, UniProt P30771 1-971)
chain: MVGSGSHTPYDISNSPSDVNVQPATQLNSTLVEDDDVDNQLFEEAQVTETGFRSPSASDNSCAYCGIDSAKCVIKCNSCKKWFCNTKNGTSSSHIVNHLVLSHHNVVSLHPDSDLGDTVLECYNCGRKNVFLLGFVSAKSEAVVVLLCRIPCAQTKNANWDTDQWQPLIEDRQLLSWVAEQPTEEEKLKARLITPSQISKLEAKWRSNKDATINDIDAPEEQEAIPPLLLRYQDAYEYQRSYGPLIKLEADYDKQLKESQALEHISVSWSLALNNRHLASFTLSTFESNELKVAIGDEMILWYSGMQHPDWEGRGYIVRLPNSFQDTFTLELKPSKTPPPTHLTTGFTAEFIWKGTSYDRMQDALKKFAIDKKSISGYLYYKILGHQVVDISFDVPLPKEFSIPNFAQLNSSQSNAVSHVLQRPLSLIQGPPGTGKTVTSATIVYHLSKIHKDRILVCAPSNVAVDHLAAKLRDLGLKVVRLTAKSREDVESSVSNLALHNLVGRGAKGELKNLLKLKDEVGELSASDTKRFVKLVRKTEAEILNKADVVCCTCVGAGDKRLDTKFRTVLIDESTQASEPECLIPIVKGAKQVILVGDHQQLGPVILERKAADAGLKQSLFERLISLGHVPIRLEVQYRMNPYLSEFPSNMFYEGSLQNGVTIEQRTVPNSKFPWPIRGIPMMFWANYGREEISANGTSFLNRIEAMNCERIITKLFRDGVKPEQIGVITPYEGQRAYILQYMQMNGSLDKDLYIKVEVASVDAFQGREKDYIILSCVRANEQQAIGFLRDPRRLNVGLTRAKYGLVILGNPRSLARNTLWNHLLIHFREKGCLVEGTLDNLQLCTVQLVRPQPRKTERPMNAQFNVESEMGDFPKFQDFDAQSMVSFSGQIGDFGNAFVDNTELSSYINNEYWNFENFKSAFSQKQNRNEIDDRNLYQEEASHLNSNFARELQREEQKHELSKDFSNLGI
B5: Lsm2 (protein, UniProt P38203 1-95)
chain: MLFFSFFKTLVDQEVVVELKNDIEIKGTLQSVDQFLNLKLDNISCTDEKKYPHLGSVRNIFIRGSTVRYVYLNKNMVDTNLLQDATRREVMTERK
B6: Lsm6 (protein, UniProt Q06406 1-86)
chain: MSGKASTEGSVTTEFLSDIIGKTVNVKLASGLLYSGRLESIDGFMNVALSSATEHYESNNNKLLNKFNSDVFLRGTQVMYISEQKI
B7: Lsm3 (protein, UniProt P57743 1-89)
chain: METPLDLLKLNLDERVYIKLRGARTLVGTLQAFDSHCNIVLSDAVETIYQLNNEELSESERRCEMVFIRGDTVTLISTPSEDDDGAVEI
B8: Pat1 (protein, UniProt P25644 1-796)
chain: MSFFGLENSGNARDGPLDFEESYKGYGEHELEENDYLNDETFGDNVQVGTDFDFGNPHSSGSSGNAIGGNGVGATARSYVAATAEGISGPRTDGTAAAGPLDLKPMESLWSTAPPPAMAPSPQSTMAPAPAPQQMAPLQPILSMQDLERQQRQMQQQFMNFHAMGHPQGLPQGPPQQQFPMQPASGQPGPSQFAPPPPPPGVNVNMNQMPMGPVQVPVQASPSPIGMSNTPSPGPVVGATKMPLQSGRRSKRDLSPEEQRRLQIRHAKVEKILKYSGLMTPRDKDFITRYQLSQIVTEDPYNEDFYFQVYKIIQRGGITSESNKGLIARAYLEHSGHRLGGRYKRTDIALQRMQSQVEKAVTVAKERPSKLKDQQAAAGNSSQDNKQANTVLGKISSTLNSKNPRRQLQIPRQQPSDPDALKDVTDSLTNVDLASSGSSSTGSSAAAVASKQRRRSSYAFNNGNGATNLNKSGGKKFILELIETVYEEILDLEANLRNGQQTDSTAMWEALHIDDSSYDVNPFISMLSFDKGIKIMPRIFNFLDKQQKLKILQKIFNELSHLQIIILSSYKTTPKPTLTQLKKVDLFQMIILKIIVSFLSNNSNFIEIMGLLLQLIRNNNVSFLTTSKIGLNLITILISRAALIKQDSSRSNILSSPEISTWNEIYDKLFTSLESKIQLIFPPREYNDHIMRLQNDKFMDEAYIWQFLASLALSGKLNHQRIIIDEVRDEIFATINEAETLQKKEKELSVLPQRSQELDTELKSIIYNKEKLYQDLNLFLNVMGLVYRDGEISELK
B9: Dcp2, P53550 1-970 (protein)
chain: MSLPLRHALENVTSVDRILEDLLVRFIINCPNEDLSSVERELFHFEEASWFYTDFIKLMNPTLPSLKIKSFAQLIIKLCPLVWKWDIRVDEALQQFSKYKKSIPVRGAAIFNENLSKILLVQGTESDSWSFPRGKISKDENDIDCCIREVKEEIGFDLTDYIDDNQFIERNIQGKNYKIFLISGVSEVFNFKPQVRNEIDKIEWFDFKKISKTMYKSNIKYYLINSMMRPLSMWLRHQRQIKNEDQLKSYAEEQLKLLLGITKEEQIDPGRELLNMLHTAVQANSNNNAVSNGQVPSSQELQHLKEQSGEHNQQKDQQSSFSSQQQPSIFPSLSEPFANNKNVIPPTMPMANVFMSNPQLFATMNGQPFAPFPFMLPLTNNSNSANPIPTPVPPNFNAPPNPMAFGVPNMHNLSGPAVSQPFSLPPAPLPRDSGYSSSSPGQLLDILNSKKPDSNVQSSKKPKLKILQRGTDLNSIKQNNNDETAHSNSQALLDLLKKPTSSQKIHASKPDTSFLPNDSVSGIQDAEYEDFESSSDEEVETARDERNSLNVDIGVNVMPSEKDSRRSQKEKPRNDASKTNLNASAESNSVEWGPGKSSPSTQSKQNSSVGMQNKYRQEIHIGDSDAYEVFESSSDEEDGKKLEELEQTQDNSKLISQDILKENNFQDGEVPHRDMPTESNKSINETVGLSSTTNTVKKVPKVKILKRGETFASLANDKKAFDSSSNVSSSKDLLQMLRNPISSTVSSNQQSPKSQHLSGDEEIMMMLKRNSVSKPQNSEENASTSSINDANASELLGMLKQKEKDITAPKQPYNVDSYSQKNSAKGLLNILKKNDSTGYPRTEGGPSSEMSTSMKRNDATNNQELDKNSTELLNYLKPKPLNDGYENISNKDSSHELLNILHGNKNSSAFNNNVYATDGYSLASDNNENSSNKLLNMLQNRSSAINEPNFDVRSNGTSGSNELLSILHRK

One experiment has as its target T1, Dcp1-TAP (S. cerevisiae). The experiment in a line: affinity purification with mass spectrometry.
Details: not given
In the case of B1, the binding result was “binds”.

Take B2: the binding result is reported as “binds”. In the case of B3, the binding entry was “binds”. On the same count and under the same terms, as for B4, the entry is “binds”. As for B5, the binding entry is recorded as “binds”.

The target of the next experiment is T2, Lsm1-TAP (S. cerevisiae). Put plainly: affinity purification with mass spectrometry.
Details: not given
On to B6, for which the binding result was “binds”.

Regarding B7, the binding entry was “binds”.

As to B1, the binding entry was “binds”. For B8, the binding entry is recorded as “binds”.

For B2, the binding result is recorded as “binds”.

B3: the binding entry was “binds”. In the case of B4, the binding entry is listed as “binds”. The same measure, in the same setting: as for B5, the entry is “binds”.

The target in a further experiment is T3, Lsm1-TAP (S. cerevisiae), P47017. The experiment in a line: affinity purification with mass spectrometry. Conditions: remark: other sources report otherwise.
Take B9: the binding result is on record as “binds”.
